According to patent US20090054346A1 (Rohto Pharmaceutical Co., Ltd., priority 2006, published 2009):

Experiment: general procedure: Fmoc solid-phase peptide synthesis
Settings: whole synthesis, 220 nm

Substance: PEPTIDE1{L.E.H.A}$$$$V2.0
- final HPLC purity: 99%

HELM strings list residues between dots; [ac] is acetyl, [am] amide, other brackets name non-standard units.
